The assay has as its target E. coli BamB (E. coli) (UniProt P77774). The assay can be described thus: ITC; peptide titrated into ecBamB in the cell (203 µM LamB peptide on 25 µM ecBamB; 1.5 mM BtuB peptide on 17 µM ecBamB); iTC 200, 25°C, buffer A (25 mM TrisHCl pH 8.0, 150 mM NaCl); peptide into buffer as control; both purified. (In general: ITC needs no label: the signal is the heat of the interaction.)

Amino acid sequences for entries named in this document (tags omitted). Residues count along the entry.
UniProt P77774, residues 21-392: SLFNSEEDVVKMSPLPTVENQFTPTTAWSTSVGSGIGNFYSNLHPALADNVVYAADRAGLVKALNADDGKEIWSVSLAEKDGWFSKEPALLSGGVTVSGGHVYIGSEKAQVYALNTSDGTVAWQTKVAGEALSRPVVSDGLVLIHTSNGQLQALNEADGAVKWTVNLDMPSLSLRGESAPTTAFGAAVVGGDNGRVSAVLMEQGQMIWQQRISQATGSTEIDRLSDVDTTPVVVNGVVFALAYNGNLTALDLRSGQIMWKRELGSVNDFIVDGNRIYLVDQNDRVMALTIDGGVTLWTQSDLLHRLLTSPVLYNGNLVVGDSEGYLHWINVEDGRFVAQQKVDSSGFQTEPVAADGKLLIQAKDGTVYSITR

No constants are given. Whether binding was seen depends on the method and setting.

On to DFHGYARSGIGWT [peptide derived from the β-barrel of LamB], for which the binding result was “no binding (tested: 203 µM LamB peptide on 25 µM ecBamB)”.
